Our source for the binding values is PMC1525203.

Results are given in words; binding and its absence hold for the method and conditions named. Binding seen in cells or lysates may run through a third protein. Some results given as binding are weak or reduced against the parent protein; the word gives no strength.

For this assay, the target named is T1, Epstein-Barr virus nuclear antigen 5 (Epstein-Barr virus (endogenous in EBV-infected C666-1 and B95-8 cells)) (UniProt Q8AZK7).
T1 sequence: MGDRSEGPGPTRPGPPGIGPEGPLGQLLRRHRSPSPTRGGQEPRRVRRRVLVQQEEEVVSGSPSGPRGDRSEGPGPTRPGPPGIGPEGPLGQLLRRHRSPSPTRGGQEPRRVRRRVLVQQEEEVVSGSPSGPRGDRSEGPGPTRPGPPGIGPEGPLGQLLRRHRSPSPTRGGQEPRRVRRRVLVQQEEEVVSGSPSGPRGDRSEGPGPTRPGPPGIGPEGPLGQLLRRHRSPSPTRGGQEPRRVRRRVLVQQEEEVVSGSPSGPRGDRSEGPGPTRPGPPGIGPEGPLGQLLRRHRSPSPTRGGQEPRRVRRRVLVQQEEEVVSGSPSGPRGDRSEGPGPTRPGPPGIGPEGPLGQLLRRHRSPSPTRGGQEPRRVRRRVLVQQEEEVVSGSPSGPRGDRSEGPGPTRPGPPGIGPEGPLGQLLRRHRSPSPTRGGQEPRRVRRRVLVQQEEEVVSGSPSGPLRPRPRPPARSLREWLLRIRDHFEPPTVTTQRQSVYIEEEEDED
In words: co-IP; lysates of C666-1 and B95-8 cells (20 mM HEPES pH 7.9, 100 mM NaCl, 1% NP-40, 0.5 mM EDTA), Catch and Release v2.0 spin columns, 4°C overnight; precipitated with anti-EBNA5 JF186 and blotted with p63 4A4, and the reverse; NP69 cells as negative control.

B1: p63 protein (protein, UniProt Q9H3D4 1-680)
chain: MNFETSRCATLQYCPDPYIQRFVETPAHFSWKESYYRSTMSQSTQTNEFLSPEVFQHIWDFLEQPICSVQPIDLNFVDEPSEDGATNKIEISMDCIRMQDSDLSDPMWPQYTNLGLLNSMDQQIQNGSSSTSPYNTDHAQNSVTAPSPYAQPSSTFDALSPSPAIPSNTDYPGPHSFDVSFQQSSTAKSATWTYSTELKKLYCQIAKTCPIQIKVMTPPPQGAVIRAMPVYKKAEHVTEVVKRCPNHELSREFNEGQIAPPSHLIRVEGNSHAQYVEDPITGRQSVLVPYEPPQVGTEFTTVLYNFMCNSSCVGGMNRRPILIIVTLETRDGQVLGRRCFEARICACPGRDRKADEDSIRKQQVSDSTKNGDGTKRPFRQNTHGIQMTSIKKRRSPDDELLYLPVRGRETYEMLLKIKESLELMQYLPQHTIETYRQQQQQQHQHLLQKQTSIQSPSSYGNSSPPLNKMNSMNKLPSVSQLINPQQRNALTPTTIPDGMGANIPMMGTHMPMAGDMNGLSPTQALPPPLSMPSTSHCTPPPPYPTDCSIVSFLARLGCSSCLDYFTTQGLTTIYQIEHYSMDDLASLKIPEQFRHAIWKGILDHRQLHEFSSPSHLLRTPSSASTVSVGSSETRGERVIDAVRFTLRQTISFPPRDEWNDFNFDMDARRNKQQRIKEEGE
Regarding B1, the binding entry is recorded as “binds”.
